# Laboratory results from paper PMC5070969.
# These are yes or no findings as the source states them, for the method shown. In cells and extracts the contact can be indirect. Some binding calls cover weakened binding; strength is not graded here. Where a sequence is shown, tags or fusion partners need not be part of it.
# T1: FLAG-AP1μ1A (human) (UniProt Q9BXS5)
# T1 sequence: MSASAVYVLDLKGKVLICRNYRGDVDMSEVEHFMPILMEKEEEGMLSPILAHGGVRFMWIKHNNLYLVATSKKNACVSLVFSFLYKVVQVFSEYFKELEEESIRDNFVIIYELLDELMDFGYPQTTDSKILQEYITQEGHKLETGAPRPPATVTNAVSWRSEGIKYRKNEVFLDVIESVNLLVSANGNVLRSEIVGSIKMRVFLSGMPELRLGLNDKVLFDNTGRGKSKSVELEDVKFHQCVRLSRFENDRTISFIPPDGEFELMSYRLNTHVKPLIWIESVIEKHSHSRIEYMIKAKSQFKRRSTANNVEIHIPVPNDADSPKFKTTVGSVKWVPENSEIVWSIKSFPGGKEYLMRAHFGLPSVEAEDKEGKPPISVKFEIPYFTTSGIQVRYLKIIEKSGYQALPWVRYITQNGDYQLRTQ
# Molecular target: T1, FLAG-AP1μ1A (human)
# Assay: co-IP; HEK293 cells co-transfected with myc-AP1S3 and FLAG-AP1M1 constructs; lysates precipitated with anti-FLAG, blotted with anti-myc
binder,measurement,value
"wild-type myc-AP1σ1C (protein, UniProt Q96PC3 1-154) MIHFILLFSRQGKLRLQKWYITLPDKERKKITREIVQIILSRGHRTSSFVDWKELKLVYKRYASLYFCCAIENQDNELLTLEIVHRYVELLDKYFGNVCELDIIFNFEKAYFILDEFIIGGEIQETSKKIAVKAIEDSDMLQEVSTVSQTMGER",binding,binds
